According to ChEMBL document CHEMBL3085714 (J Med Chem, 2013):
Further values from the same series stand in other lists.

Columns and labels:
Homo sapiens [1] = species on record: Homo sapiens; assay: Selectivity for p38alpha MAP kinase (unknown origin) over SRC (unknown origin)
Homo sapiens [2] = species on record: Homo sapiens; assay: Selectivity for p38alpha MAP kinase (unknown origin) over CDK7/CycH/MAT1 (unknown origin)
Homo sapiens [3] = species on record: Homo sapiens; assay: Selectivity for p38alpha MAP kinase (unknown origin) over EEF2K (unknown origin)
Homo sapiens [4] = species on record: Homo sapiens; assay: Selectivity for p38alpha MAP kinase (unknown origin) over TSF1 (unknown origin)
Homo sapiens [5] = species on record: Homo sapiens; assay: Selectivity for p38alpha MAP kinase (unknown origin) over BRK (unknown origin)
Homo sapiens [6] = species on record: Homo sapiens; assay: Selectivity for p38alpha MAP kinase (unknown origin) over CDK4/CycD1 (unknown origin)
Homo sapiens [7] = species on record: Homo sapiens; assay: Selectivity for p38alpha MAP kinase (unknown origin) over CSK (unknown origin)
Homo sapiens [8] = species on record: Homo sapiens; assay: Selectivity for p38alpha MAP kinase (unknown origin) over EPHA7 (unknown origin)
Homo sapiens [9] = species on record: Homo sapiens; assay: Selectivity for p38alpha MAP kinase (unknown origin) over CAMK1D (unknown origin)
Homo sapiens [10] = species on record: Homo sapiens; assay: Selectivity for p38alpha MAP kinase (unknown origin) over HIPK3 (unknown origin)
Homo sapiens [11] = species on record: Homo sapiens; assay: Selectivity for p38alpha MAP kinase (unknown origin) over EGFR L858R mutant (unknown origin)
Homo sapiens [12] = species on record: Homo sapiens; assay: Selectivity for p38alpha MAP kinase (unknown origin) over S6K-beta (unknown origin)
Homo sapiens [13] = species on record: Homo sapiens; assay: Selectivity for p38alpha MAP kinase (unknown origin) over TSK2 (unknown origin)
Homo sapiens [14] = species on record: Homo sapiens; assay: Selectivity for p38alpha MAP kinase (unknown origin) over wild type RET (unknown origin)
Homo sapiens [15] = species on record: Homo sapiens; assay: Selectivity for p38alpha MAP kinase (unknown origin) over GSK3-beta (unknown origin)
Homo sapiens [16] = species on record: Homo sapiens; assay: Selectivity for p38alpha MAP kinase (unknown origin) over VEGF-R2 (unknown origin)
Homo sapiens [17] = species on record: Homo sapiens; assay: Selectivity for p38alpha MAP kinase (unknown origin) over DAPK3 (unknown origin)
Homo sapiens [18] = species on record: Homo sapiens; assay: Selectivity for p38alpha MAP kinase (unknown origin) over DCAMKL2 (unknown origin)
Homo sapiens [19] = species on record: Homo sapiens; assay: Selectivity for p38alpha MAP kinase (unknown origin) over MAP4K5 (unknown origin)
Homo sapiens [20] = species on record: Homo sapiens; assay: Selectivity for p38alpha MAP kinase (unknown origin) over CLK3 (unknown origin)
Homo sapiens [21] = species on record: Homo sapiens; assay: Selectivity for p38alpha MAP kinase (unknown origin) over PRKG1 (unknown origin)
Homo sapiens [22] = species on record: Homo sapiens; assay: Selectivity for p38alpha MAP kinase (unknown origin) over PLK3 (unknown origin)
Homo sapiens [23] = species on record: Homo sapiens; assay: Selectivity for p38alpha MAP kinase (unknown origin) over MATK (unknown origin)
Homo sapiens [24] = species on record: Homo sapiens; assay: Selectivity for p38alpha MAP kinase (unknown origin) over PKA (unknown origin)
Homo sapiens [25] = species on record: Homo sapiens; assay: Selectivity for p38alpha MAP kinase (unknown origin) over MEKK2 (unknown origin)
Homo sapiens [26] = species on record: Homo sapiens; assay: Selectivity for p38alpha MAP kinase (unknown origin) over CDK5/p25NCK (unknown origin)
Homo sapiens [27] = species on record: Homo sapiens; assay: Selectivity for p38alpha MAP kinase (unknown origin) over PKC-epsilon (unknown origin)
Homo sapiens [28] = species on record: Homo sapiens; assay: Selectivity for p38alpha MAP kinase (unknown origin) over ALK (unknown origin)
Homo sapiens [29] = species on record: Homo sapiens; assay: Selectivity for p38alpha MAP kinase (unknown origin) over DAPK1 (unknown origin)
Homo sapiens [30] = species on record: Homo sapiens; assay: Selectivity for p38alpha MAP kinase (unknown origin) over STK17A (unknown origin)
Homo sapiens [31] = species on record: Homo sapiens; assay: Selectivity for p38alpha MAP kinase (unknown origin) over GSG2 (unknown origin)
Homo sapiens [32] = species on record: Homo sapiens; assay: Selectivity for p38alpha MAP kinase (unknown origin) over MST1 (unknown origin)
Homo sapiens [33] = species on record: Homo sapiens; assay: Selectivity for p38alpha MAP kinase (unknown origin) over CDK4/CycD3 (unknown origin)
Homo sapiens [34] = species on record: Homo sapiens; assay: Selectivity for p38alpha MAP kinase (unknown origin) over CK1-delta (unknown origin)
Homo sapiens [35] = species on record: Homo sapiens; assay: Selectivity for p38alpha MAP kinase (unknown origin) over TXK (unknown origin)
Homo sapiens [36] = species on record: Homo sapiens; assay: Selectivity for p38alpha MAP kinase (unknown origin) over PHKG2 (unknown origin)
Homo sapiens [37] = species on record: Homo sapiens; assay: Selectivity for p38alpha MAP kinase (unknown origin) over FGFR4 (unknown origin)
Homo sapiens [38] = species on record: Homo sapiens; assay: Selectivity for p38alpha MAP kinase (unknown origin) over ABL1 M351T mutant (unknown origin)
Homo sapiens [39] = species on record: Homo sapiens; assay: Selectivity for p38alpha MAP kinase (unknown origin) over ZAP70 (unknown origin)
Homo sapiens [40] = species on record: Homo sapiens; assay: Selectivity for p38alpha MAP kinase (unknown origin) over TSSK1 (unknown origin)
Homo sapiens [41] = species on record: Homo sapiens; assay: Selectivity for p38alpha MAP kinase (unknown origin) over PBK (unknown origin)
Homo sapiens [42] = species on record: Homo sapiens; assay: Selectivity for p38alpha MAP kinase (unknown origin) over MET M1250T mutant (unknown origin)
Homo sapiens [43] = species on record: Homo sapiens; assay: Selectivity for p38alpha MAP kinase (unknown origin) over TAOK3 (unknown origin)
Homo sapiens [44] = species on record: Homo sapiens; assay: Selectivity for p38alpha MAP kinase (unknown origin) over DDR2 (unknown origin)
Homo sapiens [45] = species on record: Homo sapiens; assay: Selectivity for p38alpha MAP kinase (unknown origin) over PDGFR-alpha T674I mutant (unknown origin)
Homo sapiens [46] = species on record: Homo sapiens; assay: Selectivity for p38alpha MAP kinase (unknown origin) over JNK1 (unknown origin)
Homo sapiens [47] = species on record: Homo sapiens; assay: Selectivity for p38alpha MAP kinase (unknown origin) over PKC-eta (unknown origin)
Homo sapiens [48] = species on record: Homo sapiens; assay: Selectivity for p38alpha MAP kinase (unknown origin) over MYLK3 (unknown origin)
Homo sapiens [49] = species on record: Homo sapiens; assay: Selectivity for p38alpha MAP kinase (unknown origin) over MET Y1230C mutant (unknown origin)
Homo sapiens [50] = species on record: Homo sapiens; assay: Selectivity for p38alpha MAP kinase (unknown origin) over EGFR 746 to 750 deletion mutant (unknown origin)
Homo sapiens [51] = species on record: Homo sapiens; assay: Selectivity for p38alpha MAP kinase (unknown origin) over MARK4 (unknown origin)
Homo sapiens [52] = species on record: Homo sapiens; assay: Selectivity for p38alpha MAP kinase (unknown origin) over CSF1-R (unknown origin)
Homo sapiens [53] = species on record: Homo sapiens; assay: Selectivity for p38alpha MAP kinase (unknown origin) over ERBB2 (unknown origin)
Homo sapiens [54] = species on record: Homo sapiens; assay: Selectivity for p38alpha MAP kinase (unknown origin) over STK33 (unknown origin)
Homo sapiens [55] = species on record: Homo sapiens; assay: Selectivity for p38alpha MAP kinase (unknown origin) over CAMK4 (unknown origin)
Homo sapiens [56] = species on record: Homo sapiens; assay: Selectivity for p38alpha MAP kinase (unknown origin) over NEK9 (unknown origin)
Homo sapiens [57] = species on record: Homo sapiens; assay: Selectivity for p38alpha MAP kinase (unknown origin) over MAPKAPK5 (unknown origin)
Homo sapiens [58] = species on record: Homo sapiens; assay: Selectivity for p38alpha MAP kinase (unknown origin) over wild-type EGFR (unknown origin)
Homo sapiens [59] = species on record: Homo sapiens; assay: Selectivity for p38alpha MAP kinase (unknown origin) over RET Y791F mutant (unknown origin)
Homo sapiens [60] = species on record: Homo sapiens; assay: Selectivity for p38alpha MAP kinase (unknown origin) over DYRK4 (unknown origin)
Homo sapiens [61] = species on record: Homo sapiens; assay: Selectivity for p38alpha MAP kinase (unknown origin) over GSK3-alpha (unknown origin)
Homo sapiens [62] = species on record: Homo sapiens; assay: Selectivity for p38alpha MAP kinase (unknown origin) over TBK1 (unknown origin)
Homo sapiens [63] = species on record: Homo sapiens; assay: Selectivity for p38alpha MAP kinase (unknown origin) over CLK2 (unknown origin)
Homo sapiens [64] = species on record: Homo sapiens; assay: Selectivity for p38alpha MAP kinase (unknown origin) over YES (unknown origin)

Selectivity ratio (Homo sapiens [1]): > 1000 | Selectivity ratio (Homo sapiens [2]): > 1000 | Selectivity ratio (Homo sapiens [3]): > 1000 | Selectivity ratio (Homo sapiens [4]): > 1000 | Selectivity ratio (Homo sapiens [5]): > 1000 | Selectivity ratio (Homo sapiens [6]): > 1000 | Selectivity ratio (Homo sapiens [7]): > 1000 | Selectivity ratio (Homo sapiens [8]): > 1000 | Selectivity ratio (Homo sapiens [9]): > 1000 | Selectivity ratio (Homo sapiens [10]): > 1000 | Selectivity ratio (Homo sapiens [11]): > 1000 | Selectivity ratio (Homo sapiens [12]): > 1000 | Selectivity ratio (Homo sapiens [13]): > 1000 | Selectivity ratio (Homo sapiens [14]): > 1000 | Selectivity ratio (Homo sapiens [15]): > 1000 | Selectivity ratio (Homo sapiens [16]): > 1000 | Selectivity ratio (Homo sapiens [17]): > 1000 | Selectivity ratio (Homo sapiens [18]): > 1000 | Selectivity ratio (Homo sapiens [19]): > 1000 | Selectivity ratio (Homo sapiens [20]): > 1000 | Selectivity ratio (Homo sapiens [21]): > 1000 | Selectivity ratio (Homo sapiens [22]): > 1000 | Selectivity ratio (Homo sapiens [23]): > 1000 | Selectivity ratio (Homo sapiens [24]): > 1000 | Selectivity ratio (Homo sapiens [25]): > 1000 | Selectivity ratio (Homo sapiens [26]): > 1000 | Selectivity ratio (Homo sapiens [27]): > 1000 | Selectivity ratio (Homo sapiens [28]): > 1000 | Selectivity ratio (Homo sapiens [29]): > 1000 | Selectivity ratio (Homo sapiens [30]): > 1000 | Selectivity ratio (Homo sapiens [31]): > 1000 | Selectivity ratio (Homo sapiens [32]): > 1000 | Selectivity ratio (Homo sapiens [33]): > 1000 | Selectivity ratio (Homo sapiens [34]): > 1000 | Selectivity ratio (Homo sapiens [35]): > 1000 | Selectivity ratio (Homo sapiens [36]): > 1000 | Selectivity ratio (Homo sapiens [37]): > 1000 | Selectivity ratio (Homo sapiens [38]): > 1000 | Selectivity ratio (Homo sapiens [39]): > 1000 | Selectivity ratio (Homo sapiens [40]): > 1000 | Selectivity ratio (Homo sapiens [41]): > 1000 | Selectivity ratio (Homo sapiens [42]): > 1000 | Selectivity ratio (Homo sapiens [43]): > 1000 | Selectivity ratio (Homo sapiens [44]): > 1000 | Selectivity ratio (Homo sapiens [45]): > 1000 | Selectivity ratio (Homo sapiens [46]): > 1000 | Selectivity ratio (Homo sapiens [47]): > 1000 | Selectivity ratio (Homo sapiens [48]): > 1000 | Selectivity ratio (Homo sapiens [49]): > 1000 | Selectivity ratio (Homo sapiens [50]): > 1000 | Selectivity ratio (Homo sapiens [51]): > 1000 | Selectivity ratio (Homo sapiens [52]): > 1000 | Selectivity ratio (Homo sapiens [53]): > 1000 | Selectivity ratio (Homo sapiens [54]): > 1000 | Selectivity ratio (Homo sapiens [55]): > 1000 | Selectivity ratio (Homo sapiens [56]): > 1000 | Selectivity ratio (Homo sapiens [57]): > 1000 | Selectivity ratio (Homo sapiens [58]): > 1000 | Selectivity ratio (Homo sapiens [59]): > 1000 | Selectivity ratio (Homo sapiens [60]): > 1000 | Selectivity ratio (Homo sapiens [61]): > 1000 | Selectivity ratio (Homo sapiens [62]): > 1000 | Selectivity ratio (Homo sapiens [63]): > 1000 | Selectivity ratio (Homo sapiens [64]): > 1000
Structure (SMILES): Cc1cc(F)c(NC(=O)c2ccsc2)cc1Nc1ccc2c(c1)OCc1ccc(OC[C@H](O)CO)cc1C2=O
